Source: patent EP0474374A1, “Method for treatment of bone wasting diseases using a progestin” (ORTHO PHARMACEUTICAL CORPORATION, priority 1990, dated 1992)
At least one structure is not confirmed: it was looked up by name or label, or the drawing left a doubt.

Tested on: MC3T3-El osteoblast-line cells
Assay: Osteoblast cell proliferation (3H-thymidine incorporation into DNA)
Type: cell-based, mouse

For C#C[C@]1(O)CC[C@H]2[C@@H]3CCC4=CC(=O)CC[C@@H]4[C@H]3CC[C@@]21CC [LEVONORGESTREL], the osteoblast proliferation (MC3T3-El cells, result in words) was “devoid of any osteoblast proliferative effects” and the “osteoblast proliferation and differentiation” value (summary statement in words, bone forming cells, cell line not named) was “do not stimulate”.
